# From the supplement of paper PMC4604168 (melanoma cell lines)
# This is one part of the list. Many values rest on one well or one pass, so single values are uncertain.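 Imaging used 1,536-well plates; nuclei positive for cleaved PARP by antibody were divided by total DNA-stained nuclei to yield the apoptosis fraction. Doses for screening kept most cells viable, and cell lines differ markedly in resting and induced cleaved-PARP levels.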
# Test system: A101D
# Assay: cleaved PARP positive nuclei fraction relative to DMSO control; melanoma cells; higher = more apoptosis
# Conditions: library dose: low library concentration; 72 h
row,SMILES,cleaved PARP positive nuclei fraction [%]
1,"NCC(=O)Nc1ccc(-n2nc(C(F)(F)F)cc2-c2ccc3c(ccc4ccccc43)c2)cc1 + CCc1ccc(CCOc2ccc(CC3SC(=O)NC3=O)cc2)nc1 [pioglitazone] (first compound 1 µM, partner dose 2 µM)",99.7
2,"O=C(Nc1ccccc1)c1cc([N+](=O)[O-])ccc1Cl + CC(C)CCN1c2nc(Nc3cc(F)c(O)c(F)c3)ncc2N(C)C(=O)C1C [BID1870] (first compound 2 µM, partner dose 0.2 µM)",223
3,"O=C(O)c1ccc(-c2c[nH]c3ncc(-c4ccccc4)cc23)cc1C1CCCC1 + Oc1cc(-c2nc(-c3ccccc3)[nH]c2-c2ccncc2)ccc1Cl [L779450] (first compound 0.16 µM, partner dose 0.2 µM)",111
4,"CN(C)S(=O)(=O)c1ccc2c(c1)/C(=C/c1cc3c([nH]1)CCCC3)C(=O)N2 + COc1ccc(COc2ccc(Cc3cnc(N)nc3N)cc2OC)cc1 [GW2580] (first compound 0.4 µM, partner dose 1 µM)",142
5,"COc1ccc(COc2ccc(Cc3cnc(N)nc3N)cc2OC)cc1 + c1cc(-c2cnn3cc(-c4ccc(OCCN5CCCCC5)cc4)cnc23)ccn1 [Dorsomorphin] (first compound 1 µM, partner dose 0.4 µM)",49.7
6,"COc1ccc(-c2ccc3c(N4CCOCC4)nc(N4C[C@@H](C)O[C@@H](C)C4)nc3n2)cc1CO + Oc1cc(-c2nc(-c3ccccc3)[nH]c2-c2ccncc2)ccc1Cl [L779450] (first compound 0.02 µM, partner dose 0.2 µM)",79.9
7,"CCN(CC)CCCCNc1ncc2cc(-c3cc(OC)cc(OC)c3)c(NC(=O)NC(C)(C)C)nc2n1 + Cc1cc([N+](=O)[O-])ccc1NS(=O)(=O)c1cc(Cl)ccc1Cl [FH535] (first compound 0.1 µM, partner dose 1 µM)",138
8,"O=S(=O)(c1ccccc1)N(CC(F)(F)F)c1ccc(C(O)(C(F)(F)F)C(F)(F)F)cc1 + Cc1cc([N+](=O)[O-])ccc1NS(=O)(=O)c1cc(Cl)ccc1Cl [FH535] (first compound 1.4 µM, partner dose 1 µM)",77.8
9,"COc1cc2ncnc(Nc3ccc(Oc4ccccc4)cc3)c2cc1OC + O=C(O)C(=O)Nc1sc2c(c1C(=O)O)CCNC2 [TCS401] (first compound 2 µM, partner dose 1.66667 µM)",74.8

# Test system: A2058
# Assay: as above
# Conditions: library dose: low library concentration; 72 h
row,SMILES,cleaved PARP positive nuclei fraction [%]
1,"CN(C)S(=O)(=O)c1ccc2c(c1)/C(=C/c1cc3c([nH]1)CCCC3)C(=O)N2 + COc1cc2ncnc(Nc3ccc(Oc4ccccc4)cc3)c2cc1OC [SrcI1] (first compound 0.4 µM, partner dose 2 µM)",189
2,"NCC(=O)Nc1ccc(-n2nc(C(F)(F)F)cc2-c2ccc3c(ccc4ccccc43)c2)cc1 + Cn1cc(/C=C2\C(=O)Nc3cccnc32)c2ccccc21 [GW441756] (first compound 1 µM, partner dose 0.4 µM)",41.1
3,"O=C(Nc1ccccc1)c1cc([N+](=O)[O-])ccc1Cl + Oc1cc(-c2nc(-c3ccccc3)[nH]c2-c2ccncc2)ccc1Cl [L779450] (first compound 2 µM, partner dose 0.2 µM)",131
4,"O=C1NC(=O)/C(=C/c2ccc(-c3ccc(F)cc3O)o2)S1 + c1cc(-c2cnn3cc(-c4ccc(OCCN5CCCCC5)cc4)cnc23)ccn1 [Dorsomorphin] (first compound 1 µM, partner dose 0.4 µM)",86.7
5,"COC(=O)c1sccc1S(=O)(=O)Nc1ccc(Nc2ccccc2)cc1OC + COc1ccc(COc2ccc(Cc3cnc(N)nc3N)cc2OC)cc1 [GW2580] (first compound 1 µM, partner dose 1 µM)",96.4
6,"COc1cc2c(Oc3ccc4[nH]c(C)cc4c3F)ncnc2cc1OCCCN1CCCC1 [cediranib] + CCN(CC)CCCCNc1ncc2cc(-c3cc(OC)cc(OC)c3)c(NC(=O)NC(C)(C)C)nc2n1 [PD173074] (first compound 0.4 µM, partner dose 0.1 µM)",132
7,"O=C1NC(=O)/C(=C/c2ccc(-c3ccc(F)cc3O)o2)S1 + COc1cc(N2CCC(N3CCN(C)CC3)CC2)ccc1Nc1ncc(Cl)c(Nc2ccccc2S(=O)(=O)C(C)C)n1 [NVP-TAE684] (first compound 1 µM, partner dose 0.08 µM)",109
8,"O=C(O)c1ccc(-c2c[nH]c3ncc(-c4ccccc4)cc23)cc1C1CCCC1 + O=C(O)C(=O)Nc1sc2c(c1C(=O)O)CCNC2 [TCS401] (first compound 0.16 µM, partner dose 1.66667 µM)",69.5
9,"CN(NC(=O)CC(=O)NN(C)C(=S)c1ccccc1)C(=S)c1ccccc1 + CCN(CC)CCCCNc1ncc2cc(-c3cc(OC)cc(OC)c3)c(NC(=O)NC(C)(C)C)nc2n1 [PD173074] (first compound 0.006 µM, partner dose 0.1 µM)",236
10,"NCC(=O)Nc1ccc(-n2nc(C(F)(F)F)cc2-c2ccc3c(ccc4ccccc43)c2)cc1 + Cc1cc([N+](=O)[O-])ccc1NS(=O)(=O)c1cc(Cl)ccc1Cl [FH535] (first compound 1 µM, partner dose 1 µM)",195
11,"COc1ccc(COc2ccc(Cc3cnc(N)nc3N)cc2OC)cc1 + O=S(=O)(c1ccccc1)N(CC(F)(F)F)c1ccc(C(O)(C(F)(F)F)C(F)(F)F)cc1 [T0901317] (first compound 1 µM, partner dose 1.4 µM)",126
12,"O=C(Nc1ccccc1)c1cc([N+](=O)[O-])ccc1Cl + COc1ccc(COc2ccc(Cc3cnc(N)nc3N)cc2OC)cc1 [GW2580] (first compound 2 µM, partner dose 1 µM)",132
13,"NCC(=O)Nc1ccc(-n2nc(C(F)(F)F)cc2-c2ccc3c(ccc4ccccc43)c2)cc1 + COc1ccc(-c2ccc3c(N4CCOCC4)nc(N4C[C@@H](C)O[C@@H](C)C4)nc3n2)cc1CO [KU0063794] (first compound 1 µM, partner dose 0.02 µM)",114
14,"COc1cc2c(Oc3ccc4[nH]c(C)cc4c3F)ncnc2cc1OCCCN1CCCC1 [cediranib] + COc1ccc(-c2ccc3c(N4CCOCC4)nc(N4C[C@@H](C)O[C@@H](C)C4)nc3n2)cc1CO [KU0063794] (first compound 0.4 µM, partner dose 0.02 µM)",104
15,"O=S(=O)(c1ccccc1)N(CC(F)(F)F)c1ccc(C(O)(C(F)(F)F)C(F)(F)F)cc1 + CC(C)CCN1c2nc(Nc3cc(F)c(O)c(F)c3)ncc2N(C)C(=O)C1C [BID1870] (first compound 1.4 µM, partner dose 0.2 µM)",39.5
16,"NCC(=O)Nc1ccc(-n2nc(C(F)(F)F)cc2-c2ccc3c(ccc4ccccc43)c2)cc1 + COc1cc2ncnc(Nc3ccc(Oc4ccccc4)cc3)c2cc1OC [SrcI1] (first compound 1 µM, partner dose 2 µM)",91.5
17,"NCC(=O)Nc1ccc(-n2nc(C(F)(F)F)cc2-c2ccc3c(ccc4ccccc43)c2)cc1 + O=C1NC(=O)/C(=C/c2ccc(-c3ccc(F)cc3O)o2)S1 [AS252424] (first compound 1 µM, partner dose 1 µM)",33.5
18,"COc1cc2ncnc(Nc3ccc(Oc4ccccc4)cc3)c2cc1OC + c1cc(-c2cnn3cc(-c4ccc(OCCN5CCCCC5)cc4)cnc23)ccn1 [Dorsomorphin] (first compound 2 µM, partner dose 0.4 µM)",88.2
19,"CCc1ccc(CCOc2ccc(CC3SC(=O)NC3=O)cc2)nc1 (centres undefined) [pioglitazone] + COC(=O)c1sccc1S(=O)(=O)Nc1ccc(Nc2ccccc2)cc1OC [GSK0660] (first compound 2 µM, partner dose 1 µM)",86
20,"O=C(Nc1ccccc1)c1cc([N+](=O)[O-])ccc1Cl + COc1ccc2c(c1)CCC1C2CCC2(C)C(NCCCCCCN3C(=O)C=CC3=O)CCC12 [U73122] (first compound 2 µM, partner dose 0.4 µM)",65.6
21,"COc1cc2c(Oc3ccc4[nH]c(C)cc4c3F)ncnc2cc1OCCCN1CCCC1 [cediranib] + O=C1NC(=O)/C(=C/c2ccc(-c3ccc(F)cc3O)o2)S1 [AS252424] (first compound 0.4 µM, partner dose 1 µM)",207
22,"O=C(O)c1ccc(-c2c[nH]c3ncc(-c4ccccc4)cc23)cc1C1CCCC1 + CCc1ccc(CCOc2ccc(CC3SC(=O)NC3=O)cc2)nc1 [pioglitazone] (first compound 0.16 µM, partner dose 2 µM)",56.9
23,"COc1cc2ncnc(Nc3ccc(Oc4ccccc4)cc3)c2cc1OC + Oc1cc(-c2nc(-c3ccccc3)[nH]c2-c2ccncc2)ccc1Cl [L779450] (first compound 2 µM, partner dose 0.2 µM)",86.7
24,"Oc1nc(-c2ccc(C(F)(F)F)cc2)nc2c1CSCC2 + O=c1cc(-c2cccc3c2Sc2ccccc2S3)oc(N2CCOCC2)c1 [KU55933] (first compound 2 µM, partner dose 1 µM)",68.1
25,"COc1ccc(-c2ccc3c(N4CCOCC4)nc(N4C[C@@H](C)O[C@@H](C)C4)nc3n2)cc1CO + O=S(=O)(c1ccccc1)N(CC(F)(F)F)c1ccc(C(O)(C(F)(F)F)C(F)(F)F)cc1 [T0901317] (first compound 0.02 µM, partner dose 1.4 µM)",116

# An excerpt of these results, tab-delimited:
row	SMILES	cleaved PARP positive nuclei fraction [%]
9	CN(NC(=O)CC(=O)NN(C)C(=S)c1ccccc1)C(=S)c1ccccc1 + CCN(CC)CCCCNc1ncc2cc(-c3cc(OC)cc(OC)c3)c(NC(=O)NC(C)(C)C)nc2n1 [PD173074] (first compound 0.006 µM, partner dose 0.1 µM)	236
19	CCc1ccc(CCOc2ccc(CC3SC(=O)NC3=O)cc2)nc1 (centres undefined) [pioglitazone] + COC(=O)c1sccc1S(=O)(=O)Nc1ccc(Nc2ccccc2)cc1OC [GSK0660] (first compound 2 µM, partner dose 1 µM)	86
